The target of test [1] is insulin signal substrate 1 (rat (endogenous in primary cortical neurons)) (UniProt P35570). In words: co-IP; lysates from primary rat neural cultures (control or treated with ferrous chloride) incubated with primary antibody (anti-IRβ or anti-IRS-1) overnight at 4°C, captured on Protein A and G Agarose, Western blot. (In general: A western blot detects proteins with antibodies after separation by electrophoresis.)

The chains behind the UniProt entries cited, without tags or fusion partners. Residues count along the entry.
UniProt P35570: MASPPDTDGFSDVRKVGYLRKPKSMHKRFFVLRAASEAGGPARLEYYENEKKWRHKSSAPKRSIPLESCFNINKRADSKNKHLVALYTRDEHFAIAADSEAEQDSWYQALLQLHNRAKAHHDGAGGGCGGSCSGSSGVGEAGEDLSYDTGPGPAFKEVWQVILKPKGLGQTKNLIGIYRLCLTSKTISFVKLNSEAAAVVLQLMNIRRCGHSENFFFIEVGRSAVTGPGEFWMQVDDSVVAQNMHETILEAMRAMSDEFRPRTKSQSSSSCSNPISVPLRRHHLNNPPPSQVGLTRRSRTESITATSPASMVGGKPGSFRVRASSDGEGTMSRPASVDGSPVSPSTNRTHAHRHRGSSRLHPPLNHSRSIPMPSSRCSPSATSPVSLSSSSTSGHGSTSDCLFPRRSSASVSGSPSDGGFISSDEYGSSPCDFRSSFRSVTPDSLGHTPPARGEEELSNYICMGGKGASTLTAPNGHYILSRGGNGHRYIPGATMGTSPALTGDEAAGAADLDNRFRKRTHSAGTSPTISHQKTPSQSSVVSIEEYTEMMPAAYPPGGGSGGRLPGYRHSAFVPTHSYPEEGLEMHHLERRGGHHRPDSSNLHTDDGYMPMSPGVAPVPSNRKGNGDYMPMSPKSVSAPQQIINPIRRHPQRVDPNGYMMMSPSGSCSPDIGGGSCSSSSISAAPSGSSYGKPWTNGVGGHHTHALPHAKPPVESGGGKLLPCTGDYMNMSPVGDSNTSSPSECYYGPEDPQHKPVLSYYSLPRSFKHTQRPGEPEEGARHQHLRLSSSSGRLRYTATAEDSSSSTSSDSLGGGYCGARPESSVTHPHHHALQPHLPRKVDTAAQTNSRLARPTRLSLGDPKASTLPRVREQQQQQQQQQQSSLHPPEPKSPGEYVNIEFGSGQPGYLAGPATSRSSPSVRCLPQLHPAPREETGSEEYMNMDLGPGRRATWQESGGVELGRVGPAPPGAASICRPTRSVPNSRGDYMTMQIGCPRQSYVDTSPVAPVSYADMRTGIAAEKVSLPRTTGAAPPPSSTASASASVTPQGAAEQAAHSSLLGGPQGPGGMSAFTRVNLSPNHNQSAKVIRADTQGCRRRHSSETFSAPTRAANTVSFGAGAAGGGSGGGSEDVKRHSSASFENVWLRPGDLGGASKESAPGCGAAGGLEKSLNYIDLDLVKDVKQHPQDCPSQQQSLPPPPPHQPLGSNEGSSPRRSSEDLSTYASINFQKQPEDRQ
UniProt P15127, residues 764-1383: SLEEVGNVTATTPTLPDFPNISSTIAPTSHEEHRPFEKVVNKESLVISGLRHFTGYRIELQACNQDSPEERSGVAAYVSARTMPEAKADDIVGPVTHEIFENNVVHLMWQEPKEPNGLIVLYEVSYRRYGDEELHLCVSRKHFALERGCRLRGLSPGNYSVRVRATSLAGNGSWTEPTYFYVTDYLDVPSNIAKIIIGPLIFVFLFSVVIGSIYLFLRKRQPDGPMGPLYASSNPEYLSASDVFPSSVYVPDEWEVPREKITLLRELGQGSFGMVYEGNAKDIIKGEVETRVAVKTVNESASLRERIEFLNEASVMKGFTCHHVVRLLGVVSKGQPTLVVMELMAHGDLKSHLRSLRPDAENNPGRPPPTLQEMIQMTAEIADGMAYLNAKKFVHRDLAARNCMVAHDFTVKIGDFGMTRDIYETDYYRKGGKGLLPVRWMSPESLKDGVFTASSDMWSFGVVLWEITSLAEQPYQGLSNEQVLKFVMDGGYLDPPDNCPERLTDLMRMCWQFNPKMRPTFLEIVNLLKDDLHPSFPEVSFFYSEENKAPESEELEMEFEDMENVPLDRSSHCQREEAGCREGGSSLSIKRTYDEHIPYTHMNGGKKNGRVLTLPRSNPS

In test [2] the target is insulin receptor β (rat (endogenous in primary cortical neurons)) (UniProt P15127). Described as above.

For two substances, binding results are on record in article PMC6593079.

These are yes or no findings as the source states them, for the method shown. In cells and extracts the contact can be indirect. Some results given as binding are weak or reduced against the parent protein; the word gives no strength.

Take “phosphoinositide 3-kinase p85α (from UniProt Q63787-1 1-724)”: the binding entry in test [1] was “binds”.

In the case of “insulin signal substrate 1 (from UniProt P35570 1-1235)”, the binding entry in test [2] is listed as “binds”.
